The record followed here is paper PMC9841631.

Chains of the proteins cited; added tags and fusions are not shown.
UniProt P20152: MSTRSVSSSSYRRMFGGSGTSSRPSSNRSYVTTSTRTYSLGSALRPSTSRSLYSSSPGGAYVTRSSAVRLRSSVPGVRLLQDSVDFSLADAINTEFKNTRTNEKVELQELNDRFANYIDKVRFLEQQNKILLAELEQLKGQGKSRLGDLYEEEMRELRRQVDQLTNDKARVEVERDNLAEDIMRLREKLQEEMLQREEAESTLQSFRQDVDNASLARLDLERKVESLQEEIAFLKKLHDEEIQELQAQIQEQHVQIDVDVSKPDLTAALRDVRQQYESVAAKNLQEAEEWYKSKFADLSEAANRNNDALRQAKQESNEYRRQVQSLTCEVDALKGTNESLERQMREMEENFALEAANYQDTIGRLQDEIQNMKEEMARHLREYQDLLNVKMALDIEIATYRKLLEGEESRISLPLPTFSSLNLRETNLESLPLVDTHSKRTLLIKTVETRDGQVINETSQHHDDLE

This assay has as its target vimentin (mouse (endogenous in NIH3T3 and SVEC4-10)) (UniProt P20152). As to the kind of experiment: co-IP; endogenous proteins of NIH3T3 lysate; Co-IP buffer (Tris-HCl 50mM, pH7.4, MgCl2 10mM, NaCl 150mM, TritonX-100 0.5%); anti-MXRA7 (SZ181) or anti-vimentin antibody, protein A/G agarose, 4°C; western blot. (Immunoblotting shows a protein as a band on a membrane.)

No constants are given. Whether binding was seen depends on the method and setting. In cells and extracts the contact can be indirect. Some binding calls cover weakened binding; strength is not graded here.

B1: MXRA7 (endogenous) (protein, UniProt Q9CZH7 1-178)
chain: MESPVELLAALPALVTALALLLAWLLLRRGAARVPAPESTASDEAPGAPAPPEPPESCAPEPAPEGPSQSERVAEPEESEAEEPAAEGRQDEDSDSEMGPPTEEPEEEDGAAFSFKYSPGQLRGSQYKKMMTKEELEEEHRVQKEQLAAIFKLMKDNKDTFGEMSDGDMQEQLRLYDM
As to B1, the binding entry is on record as “binds”.
